Measured data: PubChem BioAssay AID1259254 (NCATS, 2017)
Purpose: 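Gene knock-downs that lead to re-replication, shown by excess G2 DNA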 (primary screen). Cell system: human HCT116 colorectal cancer cells. Reagents: single siRNA against human genes. Duration: 3 days. Measured: 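Imaged Hoechst DNA stain sorts each cell into a cycle phase by DNA amount; per plate, G2 fraction set to 0% for non-targeting and 100% for GMNN siRNA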. Direction: G2 robust z-score and G2 cells, % of GMNN control: higher = more G2 cells, more excess DNA replication. Active means: 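Active siRNAs have a G2 robust z of 5 or more median absolute deviations over the median, which in these data means about 38% or higher of GMNN control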.
The whole screen tested about 59,000 reagents; below is a random part of them. About 1,550 of them (2.6%) count as active. 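G2 share is only a proxy for re-replication; each gene was hit by three separate siRNAs, and active genes were retested.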 Reagents against one gene are numbered here. Further read-outs or replicates are left out here. Reagent sequences are not shown. The record does not give: the amount of reagent.

Knock-down of COL5A3 #1 gave: G2 robust z-score -0.417; G2 cells, % of GMNN control 0.0353; inactive. For COL5A3 #2 the deposit lists G2 robust z-score 1.46; G2 cells, % of GMNN control 13.3; inactive. COL5A3 #3 gave G2 robust z-score 0.919; G2 cells, % of GMNN control 9.43; inactive. After knock-down of GAN #1, the record shows G2 robust z-score 1.05; G2 cells, % of GMNN control 10.4; inactive. For GAN #2, the entry reads G2 robust z-score -0.913; G2 cells, % of GMNN control -3.45; inactive. Depletion of GAN #3 resulted in: G2 robust z-score -0.586; G2 cells, % of GMNN control -1.16; inactive.

For PGPEP1 #1 the deposit lists G2 robust z-score -0.743; G2 cells, % of GMNN control -2.26; inactive. Against PGPEP1 #2 the deposit lists G2 robust z-score -0.699; G2 cells, % of GMNN control -1.95; inactive. After knock-down of PGPEP1 #3, the record shows G2 robust z-score 0.351; G2 cells, % of GMNN control 5.43; inactive. After knock-down of ASAH2B #1, the record shows G2 robust z-score -0.346; G2 cells, % of GMNN control 0.53; inactive. Against ASAH2B #2, the entry reads G2 robust z-score 0.791; G2 cells, % of GMNN control 8.53; inactive. With knock-down of ASAH2B #3, the record shows G2 robust z-score 1; G2 cells, % of GMNN control 10; inactive.

FUNDC2 #1 scored G2 robust z-score -0.61; G2 cells, % of GMNN control -1.32; inactive. Against FUNDC2 #2, the values are G2 robust z-score 1.05; G2 cells, % of GMNN control 10.4; inactive. Against FUNDC2 #3, the values are G2 robust z-score 2.02; G2 cells, % of GMNN control 17.2; inactive. After knock-down of TENT5C #1 the results were G2 robust z-score 0.948; G2 cells, % of GMNN control 9.63; inactive. Silencing of TENT5C #2 gave: G2 robust z-score -0.0495; G2 cells, % of GMNN control 2.62; inactive. Knock-down of TENT5C #3 resulted in: G2 robust z-score 2.26; G2 cells, % of GMNN control 18.9; inactive.

Part of the list above, showing only “G2 robust z-score”.
ASAH2B #1	-0.346
ASAH2B #2	0.791
